Data published in patent US20240383964A1, “De Novo Designed alpha(5) beta(1) Integrin selective minibinders” (UNIVERSITY OF WASHINGTON, priority 2023, published 2024).
No constants are given. Whether binding was seen depends on the method and setting. Some results given as binding are weak or reduced against the parent protein; the word gives no strength.

Chains of the proteins cited; added tags and fusions are not shown. Lines headed by an entry give the natural chain unless they say otherwise; changes in a name come on top.
UniProt P08648: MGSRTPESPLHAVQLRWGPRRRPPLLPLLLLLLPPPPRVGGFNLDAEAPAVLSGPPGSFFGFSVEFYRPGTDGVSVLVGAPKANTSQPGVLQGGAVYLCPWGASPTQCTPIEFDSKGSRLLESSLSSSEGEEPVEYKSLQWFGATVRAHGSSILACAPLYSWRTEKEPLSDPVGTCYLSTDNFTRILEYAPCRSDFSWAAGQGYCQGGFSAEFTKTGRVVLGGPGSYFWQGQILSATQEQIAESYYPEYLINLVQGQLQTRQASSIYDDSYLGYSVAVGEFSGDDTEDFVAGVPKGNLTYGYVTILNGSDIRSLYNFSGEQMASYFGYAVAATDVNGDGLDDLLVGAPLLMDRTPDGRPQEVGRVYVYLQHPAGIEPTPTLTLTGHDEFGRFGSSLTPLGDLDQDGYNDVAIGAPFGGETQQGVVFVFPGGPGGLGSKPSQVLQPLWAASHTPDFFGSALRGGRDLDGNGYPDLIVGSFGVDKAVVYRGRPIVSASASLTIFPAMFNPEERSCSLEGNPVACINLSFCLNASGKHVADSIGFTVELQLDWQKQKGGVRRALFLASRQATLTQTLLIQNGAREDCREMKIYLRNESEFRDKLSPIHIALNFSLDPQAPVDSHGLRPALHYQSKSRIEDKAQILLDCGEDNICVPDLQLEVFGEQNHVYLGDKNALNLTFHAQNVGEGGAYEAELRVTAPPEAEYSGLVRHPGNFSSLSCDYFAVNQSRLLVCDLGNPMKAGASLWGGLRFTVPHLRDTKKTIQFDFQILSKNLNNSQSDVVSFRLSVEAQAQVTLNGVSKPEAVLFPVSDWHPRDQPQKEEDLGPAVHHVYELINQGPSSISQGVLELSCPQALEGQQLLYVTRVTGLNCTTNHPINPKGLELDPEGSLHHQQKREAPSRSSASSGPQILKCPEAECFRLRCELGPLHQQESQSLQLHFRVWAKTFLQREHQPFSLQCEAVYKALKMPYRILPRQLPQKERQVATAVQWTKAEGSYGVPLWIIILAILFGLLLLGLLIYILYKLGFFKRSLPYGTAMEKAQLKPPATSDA

Tests used:
integrin α5β1 [1] = biological target: T1, integrin α5β1 (UniProt P08648 42-995; P05556 21-728); experiment: BLI, low-pH buffer (pH 5)
T1 construct: also called alpha(5) beta(1) integrin; a5b1

integrin α5β1 [2] = biological target: T1, integrin α5β1; experiment: BLI, buffer without metal ions, 100 nM integrin

binding (integrin α5β1 [1]): binds
binding (integrin α5β1 [2]): binds
B1: xw_a5b1_00179_v4.1 (designed binder)
chain: SELIIHGRGDFPSSELERLRERFERLGIKVRVDHKVLTLIGISEEEAERLARELRKRGIWVEIRK
modifications: N-terminal biotin in the BLI assays
